Reference: PubChem BioAssay AID1259425 (University of Nebraska Medical Center, 2018)
Screen: 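Find knockdowns that reproduce the gene expression pattern seen when KSR1 is lost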 (primary screen). System: HCT116 human colon cancer cells. Reagent: siRNA pool against human genes, 50 nM siRNA. Detection: 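After 50 nM siRNA pool, branched-DNA assay measures six marker transcripts per well, minus blank, normalised to the geometric mean of two housekeeping transcripts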. Direction: BNIP3L mRNA: higher = more BNIP3L transcript after knockdown; NDRG1 mRNA: higher = more NDRG1 transcript after knockdown.
The deposit covers about 14,000 reagents; shown is a part drawn at random. Some reagents were tested in more than one well and are listed for each. Not all columns of the deposit are shown. Reagent sequences are not shown. The record does not give: the time to read-out.

{"target":"PTPRK","BNIP3L mRNA, set 1":0.0673,"NDRG1 mRNA, set 1":0.0971}
{"target":"TMLHE","BNIP3L mRNA, set 1":0.101,"NDRG1 mRNA, set 1":0.426}
{"target":"PLEKHO1","BNIP3L mRNA, set 1":0.0356,"NDRG1 mRNA, set 1":0.0693}
{"target":"BHLHE22","BNIP3L mRNA, set 1":0.124,"NDRG1 mRNA, set 1":0.357}
{"target":"MIF","BNIP3L mRNA, set 1":0.0905,"NDRG1 mRNA, set 1":0.084}
{"target":"ZNF346","BNIP3L mRNA, set 1":0.0915,"NDRG1 mRNA, set 1":0.254}
{"target":"CGNL1","BNIP3L mRNA, set 1":0.0845,"NDRG1 mRNA, set 1":0.249}
{"target":"FGFR2","BNIP3L mRNA, set 1":0.11,"NDRG1 mRNA, set 1":0.402}
{"target":"KLF6","BNIP3L mRNA, set 1":0.0906,"NDRG1 mRNA, set 1":0.11}
{"target":"GID8","BNIP3L mRNA, set 1":0.0699,"NDRG1 mRNA, set 1":0.132}
{"target":"CNN3","BNIP3L mRNA, set 1":0.0775,"NDRG1 mRNA, set 1":0.101}
{"target":"ZFYVE19","BNIP3L mRNA, set 1":0.103,"NDRG1 mRNA, set 1":0.278}
{"target":"CPNE5","BNIP3L mRNA, set 1":0.12,"NDRG1 mRNA, set 1":0.0682}
{"target":"CYB5R3","BNIP3L mRNA, set 1":0.091,"NDRG1 mRNA, set 1":0.188}
{"target":"GNAQ","BNIP3L mRNA, set 1":0.0577,"NDRG1 mRNA, set 1":0.065}
{"target":"TOX4","BNIP3L mRNA, set 1":0.111,"NDRG1 mRNA, set 1":0.202}
{"target":"IL17RC","BNIP3L mRNA, set 1":0.156,"NDRG1 mRNA, set 1":0.151}
{"target":"DNAJB1","BNIP3L mRNA, set 1":0.112,"NDRG1 mRNA, set 1":0.0576}
{"target":"NPEPL1","BNIP3L mRNA, set 1":0.265,"NDRG1 mRNA, set 1":0.191}
{"target":"MTRES1","BNIP3L mRNA, set 1":0.109,"NDRG1 mRNA, set 1":0.188}
{"target":"IGHG4","BNIP3L mRNA, set 1":0.0953,"NDRG1 mRNA, set 1":0.803}

Next part (5 carried over from the part before).
{"target":"IL17RC","BNIP3L mRNA, set 1":0.156,"NDRG1 mRNA, set 1":0.151}
{"target":"DNAJB1","BNIP3L mRNA, set 1":0.112,"NDRG1 mRNA, set 1":0.0576}
{"target":"NPEPL1","BNIP3L mRNA, set 1":0.265,"NDRG1 mRNA, set 1":0.191}
{"target":"MTRES1","BNIP3L mRNA, set 1":0.109,"NDRG1 mRNA, set 1":0.188}
{"target":"IGHG4","BNIP3L mRNA, set 1":0.0953,"NDRG1 mRNA, set 1":0.803}
{"target":"SMYD3","BNIP3L mRNA, set 1":0.0857,"NDRG1 mRNA, set 1":0.143}
{"target":"COLGALT1","BNIP3L mRNA, set 1":0.115,"NDRG1 mRNA, set 1":0.155}
{"target":"GPR88","BNIP3L mRNA, set 1":0.0901,"NDRG1 mRNA, set 1":0.269}
{"target":"TPD52L3","BNIP3L mRNA, set 1":0.0701,"NDRG1 mRNA, set 1":0.11}
{"target":"GLYR1","BNIP3L mRNA, set 1":0.0881,"NDRG1 mRNA, set 1":0.103}
{"target":"AZGP1","BNIP3L mRNA, set 1":0.0716,"NDRG1 mRNA, set 1":0.378}
{"target":"BAG4","BNIP3L mRNA, set 1":0.0614,"NDRG1 mRNA, set 1":0.166}
{"target":"KLF2","BNIP3L mRNA, set 1":0.0834,"NDRG1 mRNA, set 1":0.332}
{"target":"PLEKHG4","BNIP3L mRNA, set 1":0.232,"NDRG1 mRNA, set 1":1.04}
{"target":"DNASE1","BNIP3L mRNA, set 1":0.0921,"NDRG1 mRNA, set 1":0.266}
{"target":"PFDN4","BNIP3L mRNA, set 1":0.0748,"NDRG1 mRNA, set 1":0.119}
{"target":"IGFBP6","BNIP3L mRNA, set 1":0.136,"NDRG1 mRNA, set 1":0.13}
{"target":"LRRFIP1","BNIP3L mRNA, set 1":0.14,"NDRG1 mRNA, set 1":0.18}
{"target":"UBE2E2","BNIP3L mRNA, set 1":0.123,"NDRG1 mRNA, set 1":0.168}
{"target":"UBE2E2","BNIP3L mRNA, set 1":0.132,"NDRG1 mRNA, set 1":0.287}
